# Results are given in words; binding and its absence hold for the method and conditions named. Some entries that bind do so weakly or less than the wild type.
# Sequences of proteins named here, by UniProt entry; tags and fusion partners are left off. Residues count along the entry.
# UniProt P36941, residues 31-435: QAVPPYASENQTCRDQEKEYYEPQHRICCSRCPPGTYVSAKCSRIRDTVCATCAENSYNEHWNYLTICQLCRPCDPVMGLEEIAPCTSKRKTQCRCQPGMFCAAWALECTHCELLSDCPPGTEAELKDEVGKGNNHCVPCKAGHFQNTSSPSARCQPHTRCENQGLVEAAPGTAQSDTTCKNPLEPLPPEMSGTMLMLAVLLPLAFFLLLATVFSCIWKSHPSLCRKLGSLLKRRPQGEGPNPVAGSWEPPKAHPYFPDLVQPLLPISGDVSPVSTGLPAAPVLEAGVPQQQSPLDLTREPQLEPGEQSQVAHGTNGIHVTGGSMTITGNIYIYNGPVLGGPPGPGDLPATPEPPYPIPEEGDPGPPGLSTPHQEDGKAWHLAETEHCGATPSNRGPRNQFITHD
# B1: chimeric CBE11 (chCBE11) (antibody, V domains shown)
# VH: EVQLVESGGGLVKPGGSLKLSCAASGFTFSDYYMYWFRQTPEKRLEWVATISDGGSYTYYPDSVKGRFTISRDNAKNNLYLQMSSLKSEDTAMYYCVREENGNFYYFDYWGQGTTVTVSS
# VL: DIKMTQSPSSMYASLGERVTITCKAGQDIKSYLSWYQQKPWKSPKILIYYATRLADGVPSRFSGSGSGQDYSLTISSLESDDTATYYCLQHGESPWTFGGGTKLEIK
# notes: the latter is followed; also called pEAG982/pEAG983
# Target: T1, lymphotoxin beta receptor (LT-β-R) (human, UniProt P36941 31-435)
# T1 construct: whole, on cells; also called LT-β receptor
# Assay: FACS of LT-β-R-expressing HT-29 cells, conditioned medium
binder,measurement,value
B1,binding,binds
